# The other results are listed elsewhere or left out. Shown are side measurements of this screen, not its main read-out; they come without a call. Most of these compounds were active or inconclusive in the main read-out, so they are no random draw. Potencies come from curve fits of mixed quality, noted in brackets.
# Assay: IkB Signaling
# Conditions: ABC-DLBCL IkBa-CBG/CBR dual luciferase ratio (green luciferase fused to IkBa over red control in OCI-Ly3 lymphoma cells), 4 h
# Method in brief: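 Curves were fitted separately to fusion (green), unfused (red) and ratio luminescence, then classed by r2, magnitude and activity. Cells: OCI-Ly3, 4 h compound plus doxycycline at 37C; 10 uM MG-132 defined full response.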
# [1] = measured here: control luc red channel unless noted
smiles,measurement,setting,value
Cc1ccccc1Cn1c(SCc2ccc(C(=O)NCCc3ccccc3)cc2)nc2ccncc21,AC50,[1],"10 µM [falling, partial curve]"
CCN(CC)c1cc2c(cc1F)c(=O)c(S(=O)(=O)c1ccccc1)cn2C,AC50,[1],"31.6 µM [falling, single point]"
CCOc1ccc(NC(=O)CN2CCSc3ccc(S(=O)(=O)N4CCCC4)cc32)cc1,AC50,[1],"20 µM [falling, partial curve, poor fit]"
Cc1noc(Cn2c(=O)c3ccccc3n(CC(=O)Nc3ccc(C(C)C)cc3)c2=O)n1,AC50,[1],"39.8 µM [falling, single point]"
Cc1cc(N)c2ccccc2[n+]1CCCCCCCCCCCCCC[n+]1c(C)cc(N)c2ccccc21,AC50,measured here: IkB-luc green channel,"31.6 µM [falling, partial curve]"
same,AC50,measured here: control luc red channel,"7.94 µM [falling, full curve, poor fit]"
CCOC(=O)c1c(NC(=O)CSc2nnc(-c3ccccc3C)n2C)sc(C(C)=O)c1C,AC50,[1],"10 µM [falling, partial curve]"
O=C(NCCn1ccc2ccccc21)c1ccc(S(=O)(=O)N2CCOCC2)cc1,AC50,[1],"3.98 µM [rising, partial curve]"
CCc1cccc(NS(=O)(=O)c2cc(-c3cnc(C)o3)ccc2OC)c1,AC50,[1],"39.8 µM [falling, single point]"
CCc1ccccc1NS(=O)(=O)c1cc(Br)cc2c1N(C(=O)C1CC1)CC2,AC50,[1],"10 µM [falling, partial curve]"
COc1ccccc1NC(=O)Cn1c(=O)n(CCc2ccccc2)c(=O)c2c3c(sc21)CN(C(C)=O)CC3,AC50,[1],"3.98 µM [falling, single point]"
Cc1nnc(SCc2nc(-c3ccc(Cl)cc3)no2)n1-c1ccc(F)cc1,AC50,[1],"20 µM [falling, partial curve]"
O=C(c1ccccc1)n1nc(-c2ccco2)nc1NCc1cccs1,AC50,[1],"1.58 µM [rising, partial curve]"
Cc1ccc(Cn2cc(/C=C(/C#N)C(=O)Nc3cccc(Cl)c3)c3ccccc32)cc1,AC50,[1],"3.16 µM [falling, partial curve]"
O=c1cc(-c2ccccc2)nc2cc(-c3ccc(F)cc3)[nH]n12,AC50,[1],"31.6 µM [falling, partial curve]"
COc1cc2ccccc2cc1C(=O)Nc1cc(-c2nc3ccccc3o2)ccc1C,AC50,[1],"2 µM [falling, full curve]"
Cc1c(C(=O)OCC2CCCCC2)[nH]c2c1C(=O)CC(c1ccc(Cl)cc1)C2 (stereo not drawn),AC50,[1],"3.98 µM [falling, partial curve]"
CCn1c(=O)cc(OCC(=O)NCc2ccccc2Cl)c2ccccc21,AC50,[1],"0.794 µM [falling, partial curve, poor fit]"

# 2 neighbouring records from above:
smiles,measurement,setting,value
CCN(CC)c1cc2c(cc1F)c(=O)c(S(=O)(=O)c1ccccc1)cn2C,AC50,[1],"31.6 µM [falling, single point]"
CCOc1ccc(NC(=O)CN2CCSc3ccc(S(=O)(=O)N4CCCC4)cc32)cc1,AC50,[1],"20 µM [falling, partial curve, poor fit]"
